The text below walks through data of article doi:10.1101/2022.09.22.509111.

In one experiment the target is SUMO-42-serine-Halo. As to the kind of experiment: pelleting by ultracentrifugation.
The target of experiment [1] is 42-serine-Halo (SUMO tag removed by TEV). Nature of the experiment: pelleting by ultracentrifugation.

These are yes or no findings as the source states them, for the method shown. Some results given as binding are weak or reduced against the parent protein; the word gives no strength. For some assays here: Where a sequence is shown, tags or fusion partners need not be part of it.

SSSSSSSSSSSSSSSSSSSSSSSSSSSSSSSSSSSSSSSSSS (JF549 Halo ligand on the Halo tag (lysate was labeled before purification)) [SUMO-42-serine-Halo]: the binding entry with SUMO-42-serine-Halo was “binds”.
On to SSSSSSSSSSSSSSSSSSSSSSSSSSSSSSSSSSSSSSSSSS (JF549 Halo ligand on the Halo tag (lysate was labeled before purification)) [42-serine-Halo (SUMO tag removed by TEV)], for which the binding result in experiment [1] was “binds”.
